From PMC8541776 come the findings set out here.

The chains behind the UniProt entries cited, without tags or fusion partners. Where a name states a change or a piece, a line headed by the entry shows the natural chain unless it says otherwise.
UniProt Q10ED2: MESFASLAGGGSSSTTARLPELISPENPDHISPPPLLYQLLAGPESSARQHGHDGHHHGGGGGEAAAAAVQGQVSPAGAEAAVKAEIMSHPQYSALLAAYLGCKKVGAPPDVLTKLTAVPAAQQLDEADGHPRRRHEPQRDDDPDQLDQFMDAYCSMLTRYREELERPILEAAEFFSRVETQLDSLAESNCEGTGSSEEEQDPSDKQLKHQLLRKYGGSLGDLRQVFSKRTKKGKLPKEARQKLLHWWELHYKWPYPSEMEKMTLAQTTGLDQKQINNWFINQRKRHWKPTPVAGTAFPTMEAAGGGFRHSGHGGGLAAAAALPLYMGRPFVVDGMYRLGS

Assay [1] addresses OSH43 fused to the N-terminal luciferase domain (nLuc) (rice (Oryza sativa), Nipponbare) (UniProt Q10ED2). Description: split reporter; split-luciferase: KNOX class 1 proteins with nLuc, SLR1 with cLuc, in tobacco leaves by Agrobacterium; CCD imaging after 36 h in the dark.
The target of assay [2] is OSH43 fused to the N-terminal region of YFP (nYFP) (rice (Oryza sativa)). As to the kind of experiment: split reporter; BiFC: SLR1-cYFP and KNOX-nYFP co-infiltrated by Agrobacterium GV3101 into N. benthamiana leaves; YFP read by confocal microscopy after 48 h.
Assay [3] has as its target HOX domain of OSH1 fused to the GAL4 binding domain (rice (Oryza sativa)). Description: two-hybrid; GAL4 system in S. cerevisiae AH109; KNOX class 1 proteins (and truncated OSH1) on pGBKT7 (BD), SLR1 (full length and truncated) on pGADT7 (AD); selection on SD/-Trp/-Leu/-His/-Ade.
For assay [4], the target named is KNOX 1 domain of OSH1 fused to the GAL4 binding domain (rice (Oryza sativa)). The description is as above.

No constants are given. Whether binding was seen depends on the method and setting. Binding can be weak; no strength is given. Tags and fused reporters may be left off the sequences shown. For some of these results: Binding seen in cells or lysates may run through a third protein.

B1: SLR1 fused to the C-terminal luciferase domain (cLuc) (protein, UniProt Q7G7J6 1-625)
chain: MKREYQEAGGSSGGGSSADMGSCKDKVMAGAAGEEEDVDELLAALGYKVRSSDMADVAQKLEQLEMAMGMGGVSAPGAADDGFVSHLATDTVHYNPSDLSSWVESMLSELNAPLPPIPPAPPAARHASTSSTVTGGGGSGFFELPAAADSSSSTYALRPISLPVVATADPSAADSARDTKRMRTGGGSTSSSSSSSSSLGGGASRGSVVEAAPPATQGAAAANAPAVPVVVVDTQEAGIRLVHALLACAEAVQQENFAAAEALVKQIPTLAASQGGAMRKVAAYFGEALARRVYRFRPADSTLLDAAFADLLHAHFYESCPYLKFAHFTANQAILEAFAGCHRVHVVDFGIKQGMQWPALLQALALRPGGPPSFRLTGVGPPQPDETDALQQVGWKLAQFAHTIRVDFQYRGLVAATLADLEPFMLQPEGEADANEEPEVIAVNSVFELHRLLAQPGALEKVLGTVHAVRPRIVTVVEQEANHNSGSFLDRFTESLHYYSTMFDSLEGGSSGQAELSPPAAGGGGGTDQVMSEVYLGRQICNVVACEGAERTERHETLGQWRNRLGRAGFEPVHLGSNAYKQASTLLALFAGGDGYRVEEKEGCLTLGWHTRPLIATSAWRVAAA
In the case of B1, the binding result in assay [1] is listed as “binds”.

B2: SLR1 fused to the C-terminal region of YFP (SLR1-cYFP) (protein, UniProt Q7G7J6 1-625)
chain: MKREYQEAGGSSGGGSSADMGSCKDKVMAGAAGEEEDVDELLAALGYKVRSSDMADVAQKLEQLEMAMGMGGVSAPGAADDGFVSHLATDTVHYNPSDLSSWVESMLSELNAPLPPIPPAPPAARHASTSSTVTGGGGSGFFELPAAADSSSSTYALRPISLPVVATADPSAADSARDTKRMRTGGGSTSSSSSSSSSLGGGASRGSVVEAAPPATQGAAAANAPAVPVVVVDTQEAGIRLVHALLACAEAVQQENFAAAEALVKQIPTLAASQGGAMRKVAAYFGEALARRVYRFRPADSTLLDAAFADLLHAHFYESCPYLKFAHFTANQAILEAFAGCHRVHVVDFGIKQGMQWPALLQALALRPGGPPSFRLTGVGPPQPDETDALQQVGWKLAQFAHTIRVDFQYRGLVAATLADLEPFMLQPEGEADANEEPEVIAVNSVFELHRLLAQPGALEKVLGTVHAVRPRIVTVVEQEANHNSGSFLDRFTESLHYYSTMFDSLEGGSSGQAELSPPAAGGGGGTDQVMSEVYLGRQICNVVACEGAERTERHETLGQWRNRLGRAGFEPVHLGSNAYKQASTLLALFAGGDGYRVEEKEGCLTLGWHTRPLIATSAWRVAAA
B2: the binding entry in assay [2] is listed as “binds”.

B3: C-terminal GRAS domain of SLR1 fused to the GAL4 activation domain (domain or fragment, UniProt Q7G7J6 232-621)
chain: VDTQEAGIRLVHALLACAEAVQQENFAAAEALVKQIPTLAASQGGAMRKVAAYFGEALARRVYRFRPADSTLLDAAFADLLHAHFYESCPYLKFAHFTANQAILEAFAGCHRVHVVDFGIKQGMQWPALLQALALRPGGPPSFRLTGVGPPQPDETDALQQVGWKLAQFAHTIRVDFQYRGLVAATLADLEPFMLQPEGEADANEEPEVIAVNSVFELHRLLAQPGALEKVLGTVHAVRPRIVTVVEQEANHNSGSFLDRFTESLHYYSTMFDSLEGGSSGQAELSPPAAGGGGGTDQVMSEVYLGRQICNVVACEGAERTERHETLGQWRNRLGRAGFEPVHLGSNAYKQASTLLALFAGGDGYRVEEKEGCLTLGWHTRPLIATSAWR
On to B3, for which the binding result in assay [3] and in assay [4] was “binds” in each case.
